Results as given in US20140234872A1.
These are yes or no findings as the source states them, for the method shown. Binding seen in cells or lysates may run through a third protein. Some binding calls cover weakened binding; strength is not graded here. Where a sequence is shown, tags or fusion partners need not be part of it.

Amino acid sequences for entries named in this document (tags omitted).
UniProt P29350: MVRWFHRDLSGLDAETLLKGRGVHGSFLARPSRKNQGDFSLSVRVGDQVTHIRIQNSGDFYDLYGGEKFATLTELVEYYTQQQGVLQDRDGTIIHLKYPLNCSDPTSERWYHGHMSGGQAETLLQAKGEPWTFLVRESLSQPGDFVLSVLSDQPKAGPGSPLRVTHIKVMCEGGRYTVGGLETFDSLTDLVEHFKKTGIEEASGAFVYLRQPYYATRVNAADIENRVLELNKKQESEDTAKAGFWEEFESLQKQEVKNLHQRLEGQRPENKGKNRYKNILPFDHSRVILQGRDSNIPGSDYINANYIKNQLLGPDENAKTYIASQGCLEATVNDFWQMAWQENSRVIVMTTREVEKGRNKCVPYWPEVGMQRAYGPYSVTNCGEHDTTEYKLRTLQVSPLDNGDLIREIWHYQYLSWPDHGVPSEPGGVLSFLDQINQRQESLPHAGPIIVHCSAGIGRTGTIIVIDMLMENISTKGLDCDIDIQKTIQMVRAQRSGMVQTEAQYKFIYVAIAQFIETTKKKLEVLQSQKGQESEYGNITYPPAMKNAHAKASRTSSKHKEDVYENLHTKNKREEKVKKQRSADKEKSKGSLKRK

Legend:
[1] = biological target: GST-SHP-1 (full length, wild-type, human) (human) (UniProt P29350); test: GST pulldown, GIV-CT pAb blot (FIG. 20B)
[2] = biological target: GST-SHP-1 (full length, wild-type, human) (human) (UniProt P29350); test: GST pulldown, ˜3 µg His-GIV-CT and ˜25 µg GST-SHP-1, GIV-CT pAb blot (FIG. 20A)
[3] = biological target: GST-SHP-1 (full length, wild-type, human) (human) (UniProt P29350); test: GST pulldown with recombinant proteins

- binding [1]: binds
- binding [2]: binds
- binding [3]: binds
B1: His-GIV-CT (aa 1660-1870), wild-type, not phosphorylated (mock- or sham-treated) (protein, not shown: small tags and cut ends)
chain: SETLESRHHKIKTGSPGSEVVTLQQFLEESNKLTSVQIKSSSQENLLDEVMKSLSVSSDFLGKDKPVSCGLARSVSGKTPGDFYDRRTTKPEFLRPGPRKTEDTYFISSAGKPTPGTQGKIKLVKESSLSRQSKDSNPYATLPRASSVISTAEGTTRRTSIHDFLTKDSRLPISVDSPPAAADSNTTAASNVDKVQESRNSKSRSREQQSS
